Reference: publication PMC6017538
Results are given in words; binding and its absence hold for the method and conditions named. Binding seen in cells or lysates may run through a third protein. A yes stands for co-enrichment or nearness to the bait. Other partners may have been found.

The chains behind the UniProt entries cited, without tags or fusion partners.
UniProt P9WP31, whole entry: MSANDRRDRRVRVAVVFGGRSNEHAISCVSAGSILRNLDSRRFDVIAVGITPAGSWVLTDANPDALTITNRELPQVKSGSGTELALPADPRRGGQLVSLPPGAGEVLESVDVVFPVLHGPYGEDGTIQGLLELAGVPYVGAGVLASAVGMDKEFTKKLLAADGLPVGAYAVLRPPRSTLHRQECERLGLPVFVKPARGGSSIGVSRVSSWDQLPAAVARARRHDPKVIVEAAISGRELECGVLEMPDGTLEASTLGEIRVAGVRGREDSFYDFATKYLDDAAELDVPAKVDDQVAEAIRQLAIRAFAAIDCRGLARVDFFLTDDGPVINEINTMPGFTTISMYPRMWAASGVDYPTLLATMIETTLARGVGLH

What follows are molecules tested against Mycobacterium tuberculosis D-alanyl-D-alanine ligase A (Tb-DdlA), His6 fusion protein (Mycobacterium tuberculosis H37Rv) (UniProt P9WP31) (assay: affinity purification with mass spectrometry; only the target purified).

| Molecule | binding |
| --- | --- |
| carbon-monoxide dehydrogenase large subunit (MSMEG_0746) (from UniProt A0QQG4) (enzyme) | binds |
| ornithine-oxo-acid transaminase (MSMEG_1413, rocD) (from UniProt A0QSA8) (enzyme) | binds |
| diaminopimelate decarboxylase (MSMEG_4958, lysA) (enzyme, UniProt Q9X5M1 1-474) MNAHPAGPRHAEELHHADVPDKPQSPDEIMLLAPNVWPRNLVRGADGVVTIAGVPVTDLAAKFGTPLFVIDEDDFRTRCRDIAAAFGGGQYVHYAAKAFLCSEIARWVDEEGLSLDVATGGELAVALHAGFPASRITVHGNNKSVAELTAAVQAGVGHVVLDSEIEIERLDQIAGAAGVVQDVLVRVTVGVEAHTHEFISTAHEDQKFGLSLATGAAMNAIRRVFATDNLRLVGLHSHIGSQIFDVAGFEIAAHRVIGLLRDVVAEFGVEKTSQMSIVDLGGGLGISYLPHDDPPPMKELADKLLEIVRTESAAVGLPTPKLVVEPGRAIAGPGTITLYEVGTVKDVAVSQTAHRRYVSVDGGMSDNIRTSLYAAQYDARLVSRVSDAPPALARIVGKHCESGDIVVRDTWVSDDIAPGDLIGVAATGAYCYSMSSRYNLLCRPAVVAVADGQARLVLRRETVEDLLSLEVKGQ | binds |
